Results are given in words; binding and its absence hold for the method and conditions named. A result given as binding can be weak or reduced; the word gives no strength.
Columns and labels:
Experiment in all cases: Western blotting, antibody at 2 µg/ml
[1] = target: apoptotic HMGB1 (prepared from CHO-K1 cells) (derived from CHO-K1 cells)
[2] = target: necrotic HMGB1 (prepared from CHO-K1 cells) (derived from CHO-K1 cells)
[3] = target: nuclear HMGB1 (prepared from CHO-K1 cells) (derived from CHO-K1 cells)
[4] = target: secondary necrotic HMGB1 (prepared from CHO-K1 cells) (derived from CHO-K1 cells)

Measured: binding

B1: rat anti-HMGB1 monoclonal antibody #10-22 (antibody, V domains shown)
VH: AVQLVESGGGLVQPKESLKISCAASGFTFSNAAMYWVRQAPGKGLEWVARIRTKPNNYATYYADSVKGRFTISRDDSKSMVYLQMDNLKTEDTAMYYCTAPRRTEGIVSSGVDYWGQGVMVTVSS
VL: YELIQPPSASVTLGNTVSITCSGDELPKRYAYWYQQKPDKSIVRVIYKDSERPSGISDRFSGSSSGTTATLTIRDTQAEDEADYYCHSTYSDDKLPVFGGGTKLTVLG
binds: all assays above

B2: #10-22 humanized antibody EV007156 (antibody, human IgG1, lambda, V domains shown)
VH: EVQLVESGGGLVQPGGSLKLSCAASGFTFSNAAMYWVRQASGKGLEWVARIRTKPNNYATYYADSVKGRFTISRDDSKNTAYLQMNSLKTEDTAVYYCTAPRRTEGIVSSGVDYWGQGTLVTVSS
VL: YELTQPPSVSVSPGQTASITCSGDELPKRYAYWYQQKPGQSIVRVIYKDSERPSGIPERFSGSSSGTTATLTISGTQAEDEADYYCHSTYSDDKLPVFGGGTKLTVLG
binds: all assays above

— patent US20150361164A1
